Results published in the supplement of paper PMC5836539.
± gives the standard deviation of the averaged measurements. This data set is noisy: repeats of one test often differ as much as different tests do.

Chains of the proteins cited; added tags and fusions are not shown. Lines headed by an entry give the natural chain unless they say otherwise; changes in a name come on top.
UniProt Q13017, whole entry, looked up: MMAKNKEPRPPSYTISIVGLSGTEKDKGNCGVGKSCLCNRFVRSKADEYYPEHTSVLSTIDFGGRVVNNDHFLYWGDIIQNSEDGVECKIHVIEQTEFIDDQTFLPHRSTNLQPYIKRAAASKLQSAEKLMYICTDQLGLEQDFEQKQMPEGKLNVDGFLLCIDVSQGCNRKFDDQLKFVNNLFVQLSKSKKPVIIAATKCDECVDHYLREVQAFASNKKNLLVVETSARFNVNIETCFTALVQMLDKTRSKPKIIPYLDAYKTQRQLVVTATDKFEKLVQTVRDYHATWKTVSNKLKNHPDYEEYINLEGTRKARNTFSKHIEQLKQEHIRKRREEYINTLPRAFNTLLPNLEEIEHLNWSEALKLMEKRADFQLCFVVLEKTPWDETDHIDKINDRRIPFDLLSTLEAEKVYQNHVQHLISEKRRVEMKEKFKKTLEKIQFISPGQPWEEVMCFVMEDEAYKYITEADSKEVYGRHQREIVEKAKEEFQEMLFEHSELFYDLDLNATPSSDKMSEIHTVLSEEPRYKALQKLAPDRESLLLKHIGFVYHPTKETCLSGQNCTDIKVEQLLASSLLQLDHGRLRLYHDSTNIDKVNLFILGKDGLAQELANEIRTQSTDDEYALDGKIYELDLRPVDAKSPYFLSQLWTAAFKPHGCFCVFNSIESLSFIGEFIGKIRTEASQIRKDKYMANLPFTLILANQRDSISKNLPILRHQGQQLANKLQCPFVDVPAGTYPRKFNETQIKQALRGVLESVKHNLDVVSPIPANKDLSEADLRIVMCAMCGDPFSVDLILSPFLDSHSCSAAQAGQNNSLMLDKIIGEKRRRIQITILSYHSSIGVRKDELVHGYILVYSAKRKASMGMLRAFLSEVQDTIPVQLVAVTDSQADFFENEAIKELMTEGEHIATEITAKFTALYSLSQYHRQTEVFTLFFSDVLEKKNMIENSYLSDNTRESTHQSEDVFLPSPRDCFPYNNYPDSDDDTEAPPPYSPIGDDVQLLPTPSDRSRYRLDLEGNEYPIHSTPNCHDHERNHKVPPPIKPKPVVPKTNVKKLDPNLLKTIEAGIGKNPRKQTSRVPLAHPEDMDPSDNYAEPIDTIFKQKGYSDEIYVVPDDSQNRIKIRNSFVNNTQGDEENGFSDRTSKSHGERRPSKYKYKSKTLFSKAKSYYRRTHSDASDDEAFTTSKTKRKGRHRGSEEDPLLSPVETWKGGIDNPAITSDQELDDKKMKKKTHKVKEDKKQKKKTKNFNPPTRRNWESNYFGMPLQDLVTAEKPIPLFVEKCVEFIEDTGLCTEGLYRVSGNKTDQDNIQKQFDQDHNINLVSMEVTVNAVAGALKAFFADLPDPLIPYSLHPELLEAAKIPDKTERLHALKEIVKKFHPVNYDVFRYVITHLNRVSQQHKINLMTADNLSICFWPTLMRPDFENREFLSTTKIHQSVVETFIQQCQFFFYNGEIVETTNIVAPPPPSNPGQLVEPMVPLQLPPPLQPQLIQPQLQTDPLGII
UniProt Q68E01, whole entry, looked up: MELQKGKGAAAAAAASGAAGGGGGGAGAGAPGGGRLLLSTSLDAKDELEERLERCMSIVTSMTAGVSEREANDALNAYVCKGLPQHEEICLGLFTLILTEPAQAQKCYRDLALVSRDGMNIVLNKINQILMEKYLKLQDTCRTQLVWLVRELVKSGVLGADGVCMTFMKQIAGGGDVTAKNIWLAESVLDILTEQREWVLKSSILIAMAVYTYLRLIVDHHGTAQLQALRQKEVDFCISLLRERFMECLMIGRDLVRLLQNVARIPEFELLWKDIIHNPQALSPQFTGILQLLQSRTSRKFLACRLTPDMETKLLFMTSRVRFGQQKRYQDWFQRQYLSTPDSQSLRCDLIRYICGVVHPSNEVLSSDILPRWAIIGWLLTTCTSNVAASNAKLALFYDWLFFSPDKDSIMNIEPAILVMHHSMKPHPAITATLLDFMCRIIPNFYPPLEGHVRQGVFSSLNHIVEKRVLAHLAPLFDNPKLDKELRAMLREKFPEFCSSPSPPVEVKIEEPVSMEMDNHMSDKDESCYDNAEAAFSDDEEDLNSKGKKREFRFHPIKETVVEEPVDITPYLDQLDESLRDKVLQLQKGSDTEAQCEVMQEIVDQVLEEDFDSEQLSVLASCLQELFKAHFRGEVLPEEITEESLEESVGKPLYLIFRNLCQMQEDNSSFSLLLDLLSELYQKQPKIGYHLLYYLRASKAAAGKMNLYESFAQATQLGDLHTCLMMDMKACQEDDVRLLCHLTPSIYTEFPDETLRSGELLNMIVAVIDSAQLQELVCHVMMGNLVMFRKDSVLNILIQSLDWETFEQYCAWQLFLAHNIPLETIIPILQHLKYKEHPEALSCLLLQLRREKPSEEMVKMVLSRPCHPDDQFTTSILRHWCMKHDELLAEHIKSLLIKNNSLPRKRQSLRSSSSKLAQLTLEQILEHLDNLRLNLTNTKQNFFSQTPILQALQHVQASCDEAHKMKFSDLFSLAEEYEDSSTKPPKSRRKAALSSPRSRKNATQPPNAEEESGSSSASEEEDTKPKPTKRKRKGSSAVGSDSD
UniProt Q93009, whole entry, looked up: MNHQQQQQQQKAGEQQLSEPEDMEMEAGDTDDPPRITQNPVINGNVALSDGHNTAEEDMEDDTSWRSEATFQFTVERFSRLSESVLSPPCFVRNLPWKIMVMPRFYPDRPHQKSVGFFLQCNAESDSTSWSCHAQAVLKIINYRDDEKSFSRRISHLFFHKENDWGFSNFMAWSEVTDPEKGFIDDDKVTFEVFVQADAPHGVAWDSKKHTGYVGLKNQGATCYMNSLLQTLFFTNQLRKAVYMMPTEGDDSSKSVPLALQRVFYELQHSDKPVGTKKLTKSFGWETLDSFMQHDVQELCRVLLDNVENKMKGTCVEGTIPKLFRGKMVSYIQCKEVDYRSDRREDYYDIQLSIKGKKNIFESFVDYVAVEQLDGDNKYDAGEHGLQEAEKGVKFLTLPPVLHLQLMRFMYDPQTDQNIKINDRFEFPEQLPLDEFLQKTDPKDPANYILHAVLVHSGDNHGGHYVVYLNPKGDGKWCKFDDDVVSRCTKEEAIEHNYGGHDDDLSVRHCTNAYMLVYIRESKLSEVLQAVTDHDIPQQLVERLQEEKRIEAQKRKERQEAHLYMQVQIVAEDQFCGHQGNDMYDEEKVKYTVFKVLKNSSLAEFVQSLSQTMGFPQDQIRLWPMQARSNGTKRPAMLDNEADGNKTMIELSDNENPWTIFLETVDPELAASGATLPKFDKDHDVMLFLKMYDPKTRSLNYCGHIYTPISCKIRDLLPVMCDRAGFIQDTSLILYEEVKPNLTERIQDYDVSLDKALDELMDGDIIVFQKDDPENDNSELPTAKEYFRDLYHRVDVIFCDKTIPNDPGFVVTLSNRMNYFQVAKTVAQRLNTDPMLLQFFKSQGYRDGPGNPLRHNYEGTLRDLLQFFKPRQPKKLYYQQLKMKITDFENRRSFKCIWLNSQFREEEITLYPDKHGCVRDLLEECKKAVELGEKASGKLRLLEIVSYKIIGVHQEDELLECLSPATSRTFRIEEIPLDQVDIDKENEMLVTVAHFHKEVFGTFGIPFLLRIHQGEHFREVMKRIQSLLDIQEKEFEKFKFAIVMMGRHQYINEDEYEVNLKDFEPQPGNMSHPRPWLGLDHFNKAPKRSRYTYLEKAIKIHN
UniProt Q96HC4: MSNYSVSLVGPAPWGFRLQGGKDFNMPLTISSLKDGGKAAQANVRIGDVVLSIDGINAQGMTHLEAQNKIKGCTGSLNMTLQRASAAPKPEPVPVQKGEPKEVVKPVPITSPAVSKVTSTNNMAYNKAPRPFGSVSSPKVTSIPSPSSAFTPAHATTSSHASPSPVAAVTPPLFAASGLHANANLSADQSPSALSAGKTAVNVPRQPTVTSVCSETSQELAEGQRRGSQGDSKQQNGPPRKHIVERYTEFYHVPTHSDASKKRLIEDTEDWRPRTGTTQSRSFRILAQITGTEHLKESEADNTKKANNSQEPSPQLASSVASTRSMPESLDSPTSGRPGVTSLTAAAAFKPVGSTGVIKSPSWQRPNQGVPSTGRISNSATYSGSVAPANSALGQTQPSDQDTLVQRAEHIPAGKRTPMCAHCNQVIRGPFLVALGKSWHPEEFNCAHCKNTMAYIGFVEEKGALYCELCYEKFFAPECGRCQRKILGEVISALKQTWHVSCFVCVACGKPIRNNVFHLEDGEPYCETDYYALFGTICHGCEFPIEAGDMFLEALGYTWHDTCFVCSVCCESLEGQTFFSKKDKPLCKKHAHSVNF
UniProt Q92882: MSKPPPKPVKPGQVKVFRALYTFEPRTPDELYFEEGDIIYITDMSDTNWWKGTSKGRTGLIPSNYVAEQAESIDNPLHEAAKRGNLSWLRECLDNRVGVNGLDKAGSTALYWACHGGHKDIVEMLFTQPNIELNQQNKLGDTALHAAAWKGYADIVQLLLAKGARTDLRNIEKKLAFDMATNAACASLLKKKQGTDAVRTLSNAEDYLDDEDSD
UniProt O94804: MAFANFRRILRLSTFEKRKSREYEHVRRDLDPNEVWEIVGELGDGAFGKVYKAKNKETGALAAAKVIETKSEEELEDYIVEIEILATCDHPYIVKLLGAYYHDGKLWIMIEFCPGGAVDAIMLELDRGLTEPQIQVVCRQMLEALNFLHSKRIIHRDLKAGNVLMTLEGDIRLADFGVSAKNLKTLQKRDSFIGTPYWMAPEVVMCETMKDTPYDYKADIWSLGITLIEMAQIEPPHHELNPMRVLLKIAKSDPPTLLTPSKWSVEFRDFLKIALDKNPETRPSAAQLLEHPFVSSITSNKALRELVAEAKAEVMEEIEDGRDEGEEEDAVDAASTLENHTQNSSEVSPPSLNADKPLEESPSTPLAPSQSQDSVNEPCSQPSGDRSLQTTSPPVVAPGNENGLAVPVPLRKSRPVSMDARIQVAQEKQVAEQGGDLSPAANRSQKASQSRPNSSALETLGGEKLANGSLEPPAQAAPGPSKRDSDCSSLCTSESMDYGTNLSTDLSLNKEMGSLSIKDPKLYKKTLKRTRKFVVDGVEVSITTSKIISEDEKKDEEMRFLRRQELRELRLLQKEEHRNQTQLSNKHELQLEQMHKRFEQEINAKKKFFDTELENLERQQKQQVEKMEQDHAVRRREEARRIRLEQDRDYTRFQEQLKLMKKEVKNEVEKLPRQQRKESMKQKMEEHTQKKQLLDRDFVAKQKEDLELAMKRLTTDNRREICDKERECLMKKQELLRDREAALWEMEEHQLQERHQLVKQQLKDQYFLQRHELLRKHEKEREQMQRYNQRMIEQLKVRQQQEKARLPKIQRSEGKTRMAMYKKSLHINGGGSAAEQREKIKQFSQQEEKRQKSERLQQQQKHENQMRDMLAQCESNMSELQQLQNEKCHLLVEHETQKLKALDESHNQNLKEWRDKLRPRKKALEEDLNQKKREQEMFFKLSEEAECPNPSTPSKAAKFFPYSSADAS
UniProt Q9Y2W1: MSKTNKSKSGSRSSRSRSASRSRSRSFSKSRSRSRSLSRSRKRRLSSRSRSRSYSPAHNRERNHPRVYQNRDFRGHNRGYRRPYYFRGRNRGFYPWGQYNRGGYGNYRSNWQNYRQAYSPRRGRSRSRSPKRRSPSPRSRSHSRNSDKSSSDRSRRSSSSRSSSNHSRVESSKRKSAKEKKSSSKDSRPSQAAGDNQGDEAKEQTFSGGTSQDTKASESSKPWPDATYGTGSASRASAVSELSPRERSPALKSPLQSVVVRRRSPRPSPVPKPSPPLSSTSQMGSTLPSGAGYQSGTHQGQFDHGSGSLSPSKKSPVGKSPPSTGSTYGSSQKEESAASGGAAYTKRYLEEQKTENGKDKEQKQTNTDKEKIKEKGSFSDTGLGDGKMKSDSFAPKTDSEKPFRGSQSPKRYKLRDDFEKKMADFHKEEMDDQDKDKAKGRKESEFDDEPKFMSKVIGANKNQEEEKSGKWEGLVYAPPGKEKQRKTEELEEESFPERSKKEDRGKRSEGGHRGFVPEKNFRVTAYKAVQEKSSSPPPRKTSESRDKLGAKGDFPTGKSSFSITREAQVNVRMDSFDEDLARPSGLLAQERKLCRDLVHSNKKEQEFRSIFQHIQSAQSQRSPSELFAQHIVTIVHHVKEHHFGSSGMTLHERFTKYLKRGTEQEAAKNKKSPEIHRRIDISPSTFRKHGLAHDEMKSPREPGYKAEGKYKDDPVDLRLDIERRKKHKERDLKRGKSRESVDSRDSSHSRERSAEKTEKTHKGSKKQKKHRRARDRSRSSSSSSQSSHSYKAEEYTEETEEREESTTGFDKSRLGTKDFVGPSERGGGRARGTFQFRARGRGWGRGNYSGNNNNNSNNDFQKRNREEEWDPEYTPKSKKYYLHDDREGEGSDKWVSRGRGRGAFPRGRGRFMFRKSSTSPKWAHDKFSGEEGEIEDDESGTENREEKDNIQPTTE

Compound: CC[C@@H](C)Nc1cc(C(=O)N[C@H]2C[C@H]3CC[C@@H](C2)N3c2ccc(C(=O)C3CC3)cn2)c(C)cc1C(N)=O [XL888]
Experiment: phosphopeptide melting temperature shift (XL888 minus DMSO); higher = stabilised by drug treatment
Conditions: 100 µM; treatment time 2 h; layout: intact cells; SK-Mel 28
Procedure: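 Phospho-TPP in intact SK-Mel 28 cells treated with 100 uM XL888 or DMSO for 2 h, heated at 10 temperatures (37-67 C) for 3 min, soluble fraction TMT10plex-labelled and TiO2 phospho-enriched. Melting curves were fitted per phosphopeptide; the value is the melting point difference (drug minus vehicle) in each of two biological replicates.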

Target	phosphopeptide melting temperature shift [°C]
ARFGEF2 phosphosite_349 (phosphosite position: 349) (UniProt Q9Y6D5)	1.48 ± 1
ARHGEF11 phosphosite_1292 (phosphosite position: 1292) (UniProt O15085)	2.62
WDR11 phosphosite_208 (phosphosite position: 208) (UniProt Q9BZH6)	2.38
UniProt Q9NVU0-3_phosphosite_503 (phosphosite position: 503)	-1.95
SH3BP1 phosphosite_262 (phosphosite position: 262) (UniProt Q9Y3L3)	0.876 ± 0.61
UniProt Q13017-2_phosphosite_1173 (phosphosite position: 1173)	2.53
UniProt O43847_phosphosite_94 (phosphosite position: 94)	1.62 ± 2
GLCCI1 phosphosite_303 (phosphosite position: 303) (UniProt Q86VQ1)	-1.78
UNG phosphosite_23 (phosphosite position: 23) (UniProt P13051)	0.565 ± 2.4
IWS1 phosphosite_250 (phosphosite position: 250) (UniProt Q96ST2)	1.46
SPTAN1 phosphosite_1217 (phosphosite position: 1217) (UniProt Q13813)	1.04 ± 0.42
PPIL4 phosphosite_178 (phosphosite position: 178) (UniProt Q8WUA2)	0.583 ± 0.17
UniProt Q96QB1-4_phosphosite_15 (phosphosite position: 15)	0.356 ± 0.71
UniProt Q8N264-3_phosphosite_320 (phosphosite position: 320)	1.38
UniProt O75410-3_phosphosite_81 (phosphosite position: 81)	3.99 ± 0.58
UniProt Q9Y5B6-2_phosphosite_262 (phosphosite position: 262)	2.7 ± 0.84
GLCCI1 phosphosite_172 (phosphosite position: 172) (UniProt Q86VQ1)	3.23
UniProt Q68E01-4_phosphosite_14 (phosphosite position: 14)	4.39 ± 1.8
UniProt P78344-2_phosphosite_395 (phosphosite position: 395)	-2.22
NOTCH2 phosphosite_1845 (phosphosite position: 1845) (UniProt Q04721)	4.18
UniProt P98175-2_phosphosite_722 (phosphosite position: 722)	1.29 ± 0.98
UniProt Q96JM3_phosphosite_204 (phosphosite position: 204)	5.13 ± 0.16
UniProt Q14195-2_phosphosite_622 (phosphosite position: 622)	0.107

Target	phosphopeptide melting temperature shift [°C]
UniProt O15027-2_phosphosite_1149 (phosphosite position: 1149)	-2.2
MICALL1 phosphosite_484 (phosphosite position: 484) (UniProt Q8N3F8)	-2.53
UniProt Q8WX93-4_phosphosite_410 (phosphosite position: 410)	1.07
UniProt Q9P287-4_phosphosite_42 (phosphosite position: 42)	0.272 ± 0.46
IWS1 phosphosite_363 (phosphosite position: 363) (UniProt Q96ST2)	0.401 ± 0.66
UniProt P52594-2_phosphosite_253 (phosphosite position: 253)	1.3
UniProt P49407-2_phosphosite_404 (phosphosite position: 404)	2.04
UniProt P55072_phosphosite_197 (phosphosite position: 197)	-0.809 ± 4.7
UniProt Q5T200-2_phosphosite_1208 (phosphosite position: 1208)	2.14 ± 1.3
UniProt Q86UU1-3_phosphosite_518 (phosphosite position: 518)	-0.242
UniProt Q9ULJ3_phosphosite_504 (phosphosite position: 504)	-2.01
UniProt Q2PPJ7-3_phosphosite_820 (phosphosite position: 820)	0.205
UniProt Q96QU8-2_phosphosite_190 (phosphosite position: 190)	0.912
BIRC6 phosphosite_480 (phosphosite position: 480) (UniProt Q9NR09)	0.98 ± 0.83
PAK4 phosphosite_181 (phosphosite position: 181) (UniProt O96013)	-0.749
FAM122A phosphosite_143 (phosphosite position: 143) (UniProt Q96E09)	1.84 ± 1.2
HTATSF1 phosphosite_624 (phosphosite position: 624) (UniProt O43719)	0.766 ± 0.95
UniProt Q5H9R7-2_phosphosite_525 (phosphosite position: 525)	0.71 ± 1.6
UniProt P29590-4_phosphosite_518 (phosphosite position: 518)	3.06
PCYT1A phosphosite_319 (phosphosite position: 319) (UniProt P49585)	0.639
TP53BP1 phosphosite_265 (phosphosite position: 265) (UniProt Q12888)	2.16 ± 0.95
MAP1B phosphosite_1406 (phosphosite position: 1406) (UniProt P46821)	-1.91
SRRM2 phosphosite_2123 (phosphosite position: 2123) (UniProt Q9UQ35)	3.23 ± 2

12 entries from above, in markdown:

| Target | phosphopeptide melting temperature shift [°C] |
| --- | --- |
| UniProt P49407-2_phosphosite_404 (phosphosite position: 404) | 2.04 |
| UniProt P55072_phosphosite_197 (phosphosite position: 197) | -0.809 ± 4.7 |
| UniProt Q5T200-2_phosphosite_1208 (phosphosite position: 1208) | 2.14 ± 1.3 |
| UniProt Q86UU1-3_phosphosite_518 (phosphosite position: 518) | -0.242 |
| UniProt Q9ULJ3_phosphosite_504 (phosphosite position: 504) | -2.01 |
| UniProt Q2PPJ7-3_phosphosite_820 (phosphosite position: 820) | 0.205 |
| UniProt Q96QU8-2_phosphosite_190 (phosphosite position: 190) | 0.912 |
| BIRC6 phosphosite_480 (phosphosite position: 480) (UniProt Q9NR09) | 0.98 ± 0.83 |
| PAK4 phosphosite_181 (phosphosite position: 181) (UniProt O96013) | -0.749 |
| FAM122A phosphosite_143 (phosphosite position: 143) (UniProt Q96E09) | 1.84 ± 1.2 |
| HTATSF1 phosphosite_624 (phosphosite position: 624) (UniProt O43719) | 0.766 ± 0.95 |
| UniProt Q5H9R7-2_phosphosite_525 (phosphosite position: 525) | 0.71 ± 1.6 |

(further entries)

Target	phosphopeptide melting temperature shift [°C]
USP7 phosphosite_18 (phosphosite position: 18) (UniProt Q93009)	1.68 ± 0.39
PDLIM5 phosphosite_228 (phosphosite position: 228) (UniProt Q96HC4)	0.542
UniProt Q8IZ21-3_phosphosite_342 (phosphosite position: 342)	1.16
RBM15B phosphosite_267 (phosphosite position: 267) (UniProt Q8NDT2)	1.26
UniProt Q13188_phosphosite_316 (phosphosite position: 316)	1.69 ± 0.48
UniProt Q5VZ89-2_phosphosite_213 (phosphosite position: 213)	1.99 ± 2
OSTF1 phosphosite_213 (phosphosite position: 213) (UniProt Q92882)	-0.289 ± 2.1
COPA phosphosite_173 (phosphosite position: 173) (UniProt P53621)	-0.0275
UniProt O94804_phosphosite_191 (phosphosite position: 191)	1.97 ± 0.26
PSIP1 phosphosite_106 (phosphosite position: 106) (UniProt O75475)	-0.544
UniProt Q9H410-4_phosphosite_65 (phosphosite position: 65)	3.81
UniProt Q14938-6_phosphosite_272 (phosphosite position: 272)	0.206 ± 0.29
SRRM2 phosphosite_1729 (phosphosite position: 1729) (UniProt Q9UQ35)	5.91
UniProt P78316-2_phosphosite_148 (phosphosite position: 148)	4.96
SRRM1 phosphosite_393 (phosphosite position: 393) (UniProt Q8IYB3)	0.129
UniProt Q05209-2_phosphosite_457 (phosphosite position: 457)	-0.359 ± 0.83
UniProt Q9Y520-6_phosphosite_2013 (phosphosite position: 2013)	1.03
THRAP3 phosphosite_698 (phosphosite position: 698) (UniProt Q9Y2W1)	-0.533
ARHGEF11 phosphosite_556 (phosphosite position: 556) (UniProt O15085)	-0.215 ± 0.99
UniProt O75376-2_phosphosite_172 (phosphosite position: 172)	3.3 ± 6.2
SRRM1 phosphosite_551 (phosphosite position: 551) (UniProt Q8IYB3)	-0.06 ± 2.7
